No constants are given. Whether binding was seen depends on the method and setting. Binding seen in cells or lysates may run through a third protein. Some entries that bind do so weakly or less than the wild type.
Target: placental alkaline phosphatase (PALP) (human) (UniProt P05187)
Test: DSS crosslinking on LoVo cells, pull-down with biotinylated aptamer BG2, western blot with anti-IAP and anti-PALP antibodies

The chains behind the UniProt entries cited, without tags or fusion partners. Residues count along the entry.
UniProt P05187, residues 23-506: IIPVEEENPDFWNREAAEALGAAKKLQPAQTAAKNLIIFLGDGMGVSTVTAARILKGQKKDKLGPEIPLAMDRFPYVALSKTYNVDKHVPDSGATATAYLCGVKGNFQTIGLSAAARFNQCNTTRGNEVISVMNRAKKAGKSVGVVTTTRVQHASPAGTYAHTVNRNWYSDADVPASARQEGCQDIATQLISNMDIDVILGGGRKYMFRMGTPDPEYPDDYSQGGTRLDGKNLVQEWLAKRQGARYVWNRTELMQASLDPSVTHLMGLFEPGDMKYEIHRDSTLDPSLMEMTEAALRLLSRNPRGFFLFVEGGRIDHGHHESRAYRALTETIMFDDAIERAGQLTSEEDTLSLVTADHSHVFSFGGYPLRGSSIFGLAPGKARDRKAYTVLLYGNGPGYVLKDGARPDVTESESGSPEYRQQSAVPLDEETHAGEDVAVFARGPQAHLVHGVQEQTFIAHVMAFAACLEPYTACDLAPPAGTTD
UniProt P09923, residues 20-503: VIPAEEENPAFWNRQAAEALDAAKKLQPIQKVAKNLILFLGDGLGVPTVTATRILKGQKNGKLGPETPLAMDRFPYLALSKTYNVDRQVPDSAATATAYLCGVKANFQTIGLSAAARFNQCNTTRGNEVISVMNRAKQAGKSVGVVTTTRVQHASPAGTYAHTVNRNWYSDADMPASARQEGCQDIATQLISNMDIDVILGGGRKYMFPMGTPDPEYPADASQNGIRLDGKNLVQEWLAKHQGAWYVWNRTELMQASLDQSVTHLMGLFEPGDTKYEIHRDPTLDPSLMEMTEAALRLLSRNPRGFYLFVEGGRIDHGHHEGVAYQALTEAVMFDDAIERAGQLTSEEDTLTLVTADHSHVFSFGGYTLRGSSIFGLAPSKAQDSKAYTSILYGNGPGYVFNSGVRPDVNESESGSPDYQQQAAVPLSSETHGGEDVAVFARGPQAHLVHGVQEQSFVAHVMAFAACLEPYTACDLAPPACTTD

intestinal alkaline phosphatase (IAP) (from UniProt P09923 20-503) (enzyme)
binding: binds
